Test [1] addresses T1, Cbp3 (S. cerevisiae) (UniProt P21560).
T1 sequence: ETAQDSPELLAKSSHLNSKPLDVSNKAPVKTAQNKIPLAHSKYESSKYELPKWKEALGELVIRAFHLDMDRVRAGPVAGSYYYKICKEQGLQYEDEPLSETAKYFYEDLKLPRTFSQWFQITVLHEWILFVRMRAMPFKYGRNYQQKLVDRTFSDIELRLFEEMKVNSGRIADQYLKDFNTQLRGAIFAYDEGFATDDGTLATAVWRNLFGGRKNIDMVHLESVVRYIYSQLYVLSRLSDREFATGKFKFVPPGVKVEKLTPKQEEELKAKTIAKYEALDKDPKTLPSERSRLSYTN
Nature of the test: native gel or EMSA; mitochondria (100 μg) solubilised with 2% digitonin, 5-12% BN-PAGE, second dimension SDS-PAGE, Western blot against Cytb, Cbp3 or Cox1; comigration.

For test [2], the target named is T2, Cbp6 (S. cerevisiae) (UniProt P07253).
T2 sequence: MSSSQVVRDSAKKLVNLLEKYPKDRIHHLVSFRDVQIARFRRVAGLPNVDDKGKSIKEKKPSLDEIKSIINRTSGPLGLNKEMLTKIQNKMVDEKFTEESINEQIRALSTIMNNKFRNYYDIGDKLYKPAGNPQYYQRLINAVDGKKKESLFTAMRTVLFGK
The experiment in a line: native gel or EMSA; complexome profiling: mitochondrial membranes (100 μg) solubilised with digitonin (3 mg/mg protein), 4-16% BN-PAGE, lane cut into 60 slices, LC-MS/MS; comigration; three biological replicates averaged. (In general: Mobility shift assays separate free from complexed probe on a gel.)

The target in another test is T3, Qcr8 (S. cerevisiae) (UniProt P08525).
T3 sequence: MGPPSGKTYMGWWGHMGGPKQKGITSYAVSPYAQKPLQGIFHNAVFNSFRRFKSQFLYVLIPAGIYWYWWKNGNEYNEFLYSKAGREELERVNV
The description is as above.

The next test concerns the target T4, Qcr7 (S. cerevisiae) (UniProt P00128).
T4 sequence: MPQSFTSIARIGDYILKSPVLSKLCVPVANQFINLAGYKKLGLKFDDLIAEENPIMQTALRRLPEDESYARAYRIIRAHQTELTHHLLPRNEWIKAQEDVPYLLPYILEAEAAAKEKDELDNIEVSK
The description is as above.

For test [3], the target named is T1, Cbp3 (S. cerevisiae). Described as above.
The next test addresses T5, Cbp4 (S. cerevisiae) (UniProt P37267).
T5 sequence: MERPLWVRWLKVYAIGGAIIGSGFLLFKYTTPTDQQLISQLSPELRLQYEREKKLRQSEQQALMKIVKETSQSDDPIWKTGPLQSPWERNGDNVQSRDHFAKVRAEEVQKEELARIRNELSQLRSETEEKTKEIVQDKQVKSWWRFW
The test is described as above.

Another test has as its target T6, Cbp3-HA (S. cerevisiae) (UniProt P21560).
T6 sequence: T1 sequence
Nature of the test: co-IP; mitochondria (500 μg) labelled with 35S-methionine, solubilised with 1% digitonin; Cbp3-HA precipitated with anti-HA antibody on Protein A-Sepharose; Cytb seen by autoradiography.

Test [4] addresses T2, Cbp6 (S. cerevisiae). Nature of the test: native gel or EMSA; mitochondria (100 μg) solubilised with 2% digitonin, 5-12% BN-PAGE, second dimension SDS-PAGE, Western blot against Cytb, Cbp3 or Cox1; comigration.
In another test the target is T7, Cor2 (S. cerevisiae) (UniProt P07257).
T7 sequence: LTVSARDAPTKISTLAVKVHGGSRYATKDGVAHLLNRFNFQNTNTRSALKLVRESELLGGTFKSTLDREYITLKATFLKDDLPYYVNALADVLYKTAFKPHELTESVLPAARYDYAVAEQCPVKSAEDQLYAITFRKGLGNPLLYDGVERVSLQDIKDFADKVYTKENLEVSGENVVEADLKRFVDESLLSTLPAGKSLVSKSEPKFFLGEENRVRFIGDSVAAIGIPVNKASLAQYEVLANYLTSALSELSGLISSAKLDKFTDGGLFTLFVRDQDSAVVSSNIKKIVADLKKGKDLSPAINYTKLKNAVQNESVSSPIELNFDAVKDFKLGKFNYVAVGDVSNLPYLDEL
The experiment in a line: native gel or EMSA; complexome profiling: mitochondrial membranes (100 μg) solubilised with digitonin (3 mg/mg protein), 4-16% BN-PAGE, lane cut into 60 slices, LC-MS/MS; comigration; three biological replicates averaged.

No constants are given. Whether binding was seen depends on the method and setting. For part of these data: Binding seen in cells or lysates may run through a third protein. Some entries that bind do so weakly or less than the wild type. For part of these data: Sequences can lack the tags named with a protein.

Results on five molecules are retold here after article PMC10132202.

B1: CytbΔC13 (domain or fragment, UniProt P00163 1-372)
chain: MAFRKSNVYLSLVNSYIIDSPQPSSINYWWNMGSLLGLCLVIQIVTGIFMAMHYSSNIELAFSSVEHIMRDVHNGYILRYLHANGASFFFMVMFMHMAKGLYYGSYRSPRVTLWNVGVIIFILTIATAFLGYCCVYGQMSHWGATVITNLFSAIPFVGNDIVSWLWGGFSVSNPTIQRFFALHYLVPFIIAAMVIMHLMALHIHGSSNPLGITGNLDRIPMHSYFIFKDLVTVFLFMLILALFVFYSPNTLGHPDNYIPGNPLVTPASIVPEWYLLPFYAILRSIPDKLLGVITMFAAILVLLVLPFTDRSVVRGNTFKVLSKFFFFIFVFNFVLLGQIGACHVEVPYVLMGQIATFIYFAYFLIIVPVIST
B1: the binding entry is “binds” with Cbp3 (S. cerevisiae) [1]; “binds” with Cbp6 (S. cerevisiae) [2]; “binds” with Qcr8 (S. cerevisiae); “binds weakly” with Qcr7 (S. cerevisiae); “binds” in the test with Cbp3 (S. cerevisiae) [3]; “binds” with Cbp4 (S. cerevisiae). Further, the binding result with Cbp3-HA (S. cerevisiae) is “binds”.

B2: Cbp3 (protein, UniProt P21560 39-335)
chain: T1 sequence
As to B2, the binding entry with Cbp6 (S. cerevisiae) [4] and in the test with Cbp6 (S. cerevisiae) [2] was “binds” throughout.

B3: Cor1 (protein, UniProt P07256 27-457)
chain: AEVTQLSNGIVVATEHNPSAHTASVGVVFGSGAANENPYNNGVSNLWKNIFLSKENSAVAAKEGLALSSNISRDFQSYIVSSLPGSTDKSLDFLNQSFIQQKANLLSSSNFEATKKSVLKQVQDFEENDHPNRVLEHLHSTAFQNTPLSLPTRGTLESLENLVVADLESFANNHFLNSNAVVVGTGNIKHEDLVNSIESKNLSLQTGTKPVLKKKAAFLGSEVRLRDDTLPKAWISLAVEGEPVNSPNYFVAKLAAQIFGSYNAFEPASRLQGIKLLDNIQEYQLCDNFNHFSLSYKDSGLWGFSTATRNVTMIDDLIHFTLKQWNRLTISVTDTEVERAKSLLKLQLGQLYESGNPVNDANLLGAEVLIKGSKLSLGEAFKKIDAITVKDVKAWAGKRLWDQDIAIAGTGQIEGLLDYMRIRSDMSMMRW
For the molecule B3, in the test with Cor2 (S. cerevisiae), the binding result was “binds”.

B4: cytochrome b (protein, UniProt P00163 1-385)
chain: MAFRKSNVYLSLVNSYIIDSPQPSSINYWWNMGSLLGLCLVIQIVTGIFMAMHYSSNIELAFSSVEHIMRDVHNGYILRYLHANGASFFFMVMFMHMAKGLYYGSYRSPRVTLWNVGVIIFILTIATAFLGYCCVYGQMSHWGATVITNLFSAIPFVGNDIVSWLWGGFSVSNPTIQRFFALHYLVPFIIAAMVIMHLMALHIHGSSNPLGITGNLDRIPMHSYFIFKDLVTVFLFMLILALFVFYSPNTLGHPDNYIPGNPLVTPASIVPEWYLLPFYAILRSIPDKLLGVITMFAAILVLLVLPFTDRSVVRGNTFKVLSKFFFFIFVFNFVLLGQIGACHVEVPYVLMGQIATFIYFAYFLIIVPVISTIENVLFYIGRVNK
With B4, the binding entry with Cbp3 (S. cerevisiae) [1], with Cbp6 (S. cerevisiae) [2], with Qcr8 (S. cerevisiae), with Qcr7 (S. cerevisiae), in the test with Cbp3 (S. cerevisiae) [3] and with Cbp4 (S. cerevisiae) was “binds” in each case. Moreover, the binding entry with Cbp3-HA (S. cerevisiae) is on record as “binds”.

B5: CytbΔC8 (domain or fragment, UniProt P00163 1-377)
chain: MAFRKSNVYLSLVNSYIIDSPQPSSINYWWNMGSLLGLCLVIQIVTGIFMAMHYSSNIELAFSSVEHIMRDVHNGYILRYLHANGASFFFMVMFMHMAKGLYYGSYRSPRVTLWNVGVIIFILTIATAFLGYCCVYGQMSHWGATVITNLFSAIPFVGNDIVSWLWGGFSVSNPTIQRFFALHYLVPFIIAAMVIMHLMALHIHGSSNPLGITGNLDRIPMHSYFIFKDLVTVFLFMLILALFVFYSPNTLGHPDNYIPGNPLVTPASIVPEWYLLPFYAILRSIPDKLLGVITMFAAILVLLVLPFTDRSVVRGNTFKVLSKFFFFIFVFNFVLLGQIGACHVEVPYVLMGQIATFIYFAYFLIIVPVISTIENVL
B5: the binding result in the test with Cbp3-HA (S. cerevisiae) is listed as “binds”.
